# In PubChem BioAssay AID445 (National Center for Advancing Translational Sciences (NCATS), 2006):
# The other results are listed elsewhere or left out. The main result of the screen is listed elsewhere. These columns were measured beside it and carry no call. Compounds called inactive in the main read-out are mostly missing here. Words in brackets tell the shape of the fitted curve; partial curves, single points and poor fits give uncertain potencies.
# Experiment: IkB Signaling
# Conditions: ABC-DLBCL IkBa-CBG/CBR dual luciferase ratio (green luciferase fused to IkBa over red control in OCI-Ly3 lymphoma cells), 4 h; measured here: control luc red channel unless noted
# Outline: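 In this assay, an IκBα–CBG68 fusion accumulates when IKK-driven degradation is blocked; native CBR normalizes for cell number. OCI-Ly3 cells were treated 4 h with compound and doxycycline, then green and red light read after Chroma-Glo addition.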
row,Compound,AC50
1,Cn1nc(C(=O)NCc2ccccc2Cl)c2c1-c1ccccc1S(=O)(=O)C2,"0.02 µM [rising, full curve]"
2,Cc1cc(C)cc(NC(=O)CSc2oc(-c3ccco3)nc2S(=O)(=O)c2ccc(Cl)cc2)c1,"6.31 µM [falling, partial curve]"
3,Cc1cc(Br)ccc1NC(=O)CCNS(=O)(=O)c1cccc2nonc12,"10 µM [falling, partial curve]"
4,O=C(Nc1ccc(Br)cc1F)c1cc2nc(-c3ccco3)cc(C(F)(F)Cl)n2n1,"25.1 µM [rising, partial curve, poor fit]"
5,CN(c1cccc(NC(=O)CCSc2ccccc2)c1)S(C)(=O)=O,"25.1 µM [falling, single point]"
6,CCn1c2ccccc2c2nnc(SCC(=O)c3ccccc3)nc21,"39.8 µM [rising, single point]"
7,O=C(Cn1cc(SCc2ccccc2F)c2ccccc21)N1CCCC1,"25.1 µM [falling, single point]"
8,COC(=O)c1ccc(COc2ccc3c(C)c(C)c(=O)oc3c2)o1,"3.16 µM [falling, full curve]"
9,Oc1ccccc1-c1nnc(COc2ccccc2)o1,"10 µM [falling, partial curve]"
10,COc1ccccc1N1C(=O)C2C3C=CC(C3)C2(C)C1=O (centres undefined),"25.1 µM [rising, partial curve] [measured here: IkB-luc green channel]"
11,O=C(Nc1nc2c(s1)CCCC2)c1ccccc1F,"7.94 µM [falling, partial curve]"
12,CC(C)c1ccc(C2=NC(c3ccncc3)=Nc3ccc(F)cc3N2)cc1,"25.1 µM [falling, partial curve]"
13,CC(C)n1c(C(=O)OCC(=O)NCc2ccc3c(c2)OCO3)cc2sccc21,"39.8 µM [falling, single point]"
14,CNC(=O)c1ccc2nc(Cc3ccccc3)oc2c1,"0.158 µM [rising, partial curve]"
15,CN1/C(=C\C(=O)CN2C(=O)NC3(CCCCCC3)C2=O)C(C)(C)c2ccccc21,"31.6 µM [falling, single point]"
16,CC(C)c1ccc2oc(-c3ccc(Cl)c(NC(=O)Cc4ccccc4)c3)nc2c1,"0.794 µM [falling, full curve]"
17,CCC1CCc2c(sc(NC(=O)C3c4ccccc4Oc4ccccc43)c2C(=O)OC)C1 (centres undefined),"7.94 µM [falling, full curve, poor fit]"
18,O=C(COc1ccc(Cl)cc1)Nc1ccc(-c2nc3cc(Cl)ccc3o2)c(O)c1,"0.158 µM [rising, full curve]"
19,CCCNC(=O)CN1C(=O)c2c(c3ccccc3n2C)C1c1ccc(OC)cc1 (centres undefined),"39.8 µM [falling, single point]"
20,COc1ccc(CNC(=O)c2cc3oc4ccccc4c3n2C)cc1OC,"25.1 µM [falling, single point]"
21,CCc1ccc(S(=O)(=O)c2nnn3c2nc(N2CCC(C(N)=O)CC2)c2cc(Cl)ccc23)cc1,"20 µM [falling, single point]"
22,CCc1ccc(NC(=O)C2CCN(S(=O)(=O)c3c(C)noc3C)CC2)cc1,"31.6 µM [falling, single point]"

row,Compound,AC50
1,Cn1c(=O)c2cc(C(=O)Nc3cccc(C#N)c3)sc2c2ccccc21,"0.631 µM [falling, full curve]"
2,CCOc1ccc2nc(SCC(=O)c3cccs3)sc2c1,"31.6 µM [falling, single point]"
3,COC(=O)c1ccc(NC(=O)NC(C)c2c(-n3cccc3)sc(C)c2C)cc1 (centres undefined),"20 µM [falling, single point]"
4,COc1ccc(Cl)cc1NC(=O)c1sc2nc(-c3ccc(OC)c(OC)c3)ccc2c1N,"0.0631 µM [rising, full curve, poor fit]"
5,COc1ccc(C(CC(=O)Nc2nccs2)n2cccc2)cc1 (centres undefined),"15.8 µM [falling, partial curve]"
6,NC(=O)c1c(N)sc2c1CCCCC2,"12.6 µM [falling, partial curve]"
7,CCOc1ccc(NC(=O)c2c(NCc3cccs3)sc3c2CCCCC3)cc1,"15.8 µM [falling, partial curve]"
8,COC(=O)c1scc(-c2ccccc2)c1S(=O)(=O)Nc1ccc(C)c(Cl)c1,"31.6 µM [falling, single point]"
9,O=C(CSc1ncn(-c2ccccc2)n1)c1cccs1,"10 µM [falling, partial curve]"
10,Cc1cc(NC(=O)COC(=O)c2c(C)nn(-c3ccccc3)c2C)no1,"7.94 µM [falling, partial curve]"
11,Cc1ccnc2nc(NC(=O)c3ccccc3Cl)nn12,"15.8 µM [falling, partial curve]"
12,Cc1cccc(N(CC(=O)N(C)Cc2ccccc2)S(=O)(=O)c2ccccc2)c1C,"25.1 µM [falling, single point]"
13,O=C(NCCc1ccc(Cl)cc1)c1ccc(CSCc2ccc(Cl)cc2)o1,"15.8 µM [falling, partial curve]"
14,Clc1ccccc1-c1nnc(SCc2nc(-c3ccccc3)no2)n1-c1ccccc1,"12.6 µM [falling, partial curve]"
15,CCc1ccccc1NC(=O)Cn1c(=O)n(CCc2ccccc2)c(=O)c2ccccc21,"3.98 µM [falling, single point]"
16,O=C(Nc1ccc2nc(SCC(=O)N3CCOCC3)sc2c1)c1cccc(F)c1,"15.8 µM [falling, partial curve]"
17,CCOC(=O)N1CCN(S(=O)(=O)N2CCCC(C(=O)NCc3ccc(OC)cc3OC)C2)CC1 (centres undefined),"3.16 µM [falling, single point]"
18,Cn1c(C(=O)N2CCC(C(=O)N3CCN(c4ccccc4)CC3)CC2)cc2sccc21,"31.6 µM [falling, single point]"
19,Cc1ccc(CNC(=O)c2c[nH]n3c(=O)c(Cc4ccc(F)cc4Cl)c(C)nc23)cc1,"7.94 µM [falling, full curve]"
20,Cc1nnc(N2CCN(c3cccc(C(F)(F)F)c3)CC2)c2c1nnn2Cc1ccccc1,"25.1 µM [falling, partial curve]"
21,Cc1noc2ncnc(NCc3ccc(Cl)cc3)c12,"15.8 µM [falling, partial curve]"
22,Cc1ccc(-c2cc(NC(=O)C(C)Oc3ccccc3F)on2)cc1 (centres undefined),"1 µM [falling, partial curve]"

# Retrieved by compound from above, four records:
row,Compound,AC50
4,O=C(Nc1ccc(Br)cc1F)c1cc2nc(-c3ccco3)cc(C(F)(F)Cl)n2n1,"25.1 µM [rising, partial curve, poor fit]"
20,Cc1nnc(N2CCN(c3cccc(C(F)(F)F)c3)CC2)c2c1nnn2Cc1ccccc1,"25.1 µM [falling, partial curve]"
17,CCC1CCc2c(sc(NC(=O)C3c4ccccc4Oc4ccccc43)c2C(=O)OC)C1 (centres undefined),"7.94 µM [falling, full curve, poor fit]"
11,O=C(Nc1nc2c(s1)CCCC2)c1ccccc1F,"7.94 µM [falling, partial curve]"

# (listing goes on)

row,Compound,AC50
1,Cc1cc(NC(=O)C2CCCN(S(=O)(=O)c3cn(C)cn3)C2)ccc1Br (centres undefined),"25.1 µM [falling, partial curve, poor fit]"
2,COc1ccc(NC(=O)C(=O)NCc2ccco2)c(OC)c1,"12.6 µM [falling, partial curve]"
3,O=C(Nc1ccc(C(=O)OCc2cc(=O)n3ccsc3n2)cc1)c1cccc(F)c1,"0.251 µM [rising, full curve]"
4,COc1ccc(Nc2c3c(nc4ccc(NC(=O)c5cc(Cl)ccc5OC)cc24)CCCC3)cc1OC,"7.94 µM [falling, full curve]"
5,COc1ccc(OC)c(CNC(=O)C2CCN(S(=O)(=O)c3ccc4[nH]c(=O)oc4c3)CC2)c1,"1.26 µM [falling, full curve, poor fit]"
6,Cc1ccc(NCc2nnc(SCC(=O)Nc3ncc(C)s3)n2CC2CCCO2)c(C)c1 (centres undefined),"12.6 µM [falling, partial curve]"
7,O=C(Nc1nc(-c2ccco2)c(-c2ccco2)s1)C1CC(=O)N(c2ccc3c(c2)OCCO3)C1 (centres undefined),"39.8 µM [rising, single point] [measured here: IkB-luc green channel]"
8,Oc1c(C(c2ccc(Cl)cc2Cl)N2CCN(Cc3ccccc3)CC2)sc2nc(-c3ccco3)nn12 (centres undefined),"39.8 µM [falling, single point]"
9,O=C=Nc1ccc(Cl)c(Cl)c1,"5.01 µM [falling, full curve]"
10,COCCNC(=O)CCCn1c(SCc2ccccc2C)nc2c(sc3ccccc32)c1=O,"10 µM [falling, partial curve]"
11,CCn1cc(/C=C(\NC(=O)c2ccccc2Cl)C(=O)NCCCn2ccnc2)c2ccccc21,"12.6 µM [falling, partial curve]"
12,Cc1ccc(C2N3CC4(C)CN2CC(c2ccccc2)(C3)C4=O)cc1 (centres undefined),"31.6 µM [falling, partial curve]"
13,Cc1ccc(CNC(=O)c2ccc(N3Cc4ccccc4Oc4ncccc43)s2)cc1,"3.98 µM [falling, partial curve]"
14,CCOc1ccc(C(=O)Nc2ccc(C(=O)OCc3cc(=O)n4c(C)csc4n3)cc2)cc1,"31.6 µM [falling, single point]"
15,O=C(c1ccccc1C(=O)N1CCN(c2ccccc2)CC1)N1CCN(c2ccccc2)CC1,"7.94 µM [falling, partial curve]"
16,CCC(=O)Nc1ccc(-c2nc3ncccc3o2)cc1C,"1 µM [rising, full curve]"
17,CC1CCN(C(=O)c2cc(-c3ccc(Cl)c(Cl)c3)on2)CC1,"0.01 µM [falling, full curve]"
18,Cc1ccc2c(c1)c1c(c(=O)n(-c3cccc(Cl)c3)c(=O)n1CC(N)=O)n2C,"0.501 µM [rising, partial curve]"
19,CCCc1cc(=O)oc2cc(C)c3c(C)coc3c12,"2.51 µM [rising, full curve]"
20,COc1ccc(OCC(=O)Nc2cc(-c3nc4ccccc4o3)ccc2Cl)cc1,"1.58 µM [rising, partial curve]"
